For at least one entry, the source does not settle the construct or the ends of the probe.
Biological target: OX40 (CD134) (Mus musculus) (UniProt P47741)
Assay: activity in cells
Settings: 2'-F pyrimidines, 2'-OH purines; DNA linker with 18 carbon spacer between two copies of SEQ 91; 66 nM dimer increased proliferation of SEB-stimulated mouse lymph node T cells; protein on the cell surface; variant of OX40 aptamer SEQ 77

The chains behind the UniProt entries cited, without tags or fusion partners. Residues count along the entry.
UniProt P47741, 20-211: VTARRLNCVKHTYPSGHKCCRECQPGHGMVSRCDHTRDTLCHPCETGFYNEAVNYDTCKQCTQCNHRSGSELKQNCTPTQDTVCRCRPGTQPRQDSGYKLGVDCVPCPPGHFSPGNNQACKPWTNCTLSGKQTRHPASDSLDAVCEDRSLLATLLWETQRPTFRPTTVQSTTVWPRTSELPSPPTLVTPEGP

## GGGGAAUUCUAAUACGACUCACUAUAGGGAGGACGAUGCGGCAGUCUGCAUCGUAGGAAUCGCCACCGUAUACUUUCCCACCAGACGACUCGCUGAGGAUCCGAGA / TCTCGGATCCTCAGCGAGT [OX40 aptamer dimer SEQ 77]
  functional effect of the aptamer: active

Reference: patent US20100076060
